# Laboratory results taken from patent US9063046B1, “Hand-held device with reagents and method for detection and diagnostics” (priority 2012, dated 2015).
# Tests used:
# B. atrophaeus endospores = test system: B. atrophaeus endospores; design: species or system Bacillus atrophaeus
# B. atrophaeus spores = experiment: Effect of disinfectant on real-time PCR detection of spores; conditions: for effect on PCR of spores: at concentration of use: sodium hypochlorite 0.05% v/v, guanidium thiocyanate 3.5 M, peracetic acid 0.03%, cupric ascorbate 0.5%, 30 min 21° C.
# PIXV = test system: PIXV; design: species or system Pixuna virus; conditions: relative to controls not exposed to germicidal agent
molecule,measurement,setting,value
"N#CS.N=C(N)N [Guanidium thiocyanate, guanidium thiocyanate, reference compound]",effect on ELISA of spores,B. atrophaeus endospores,does not hinder
same,effect on PCR of spores,B. atrophaeus spores,does not hinder
"O=CCCCC=O [glutaraldehyde, reference compound]",effect on ELISA of spores,B. atrophaeus endospores,impair the performance
same,effect on PCR of spores,B. atrophaeus spores,impair the performance
"OO [hydrogen peroxide, reference compound]",effect on ELISA of spores,B. atrophaeus endospores,impair the performance
same,effect on PCR of spores,B. atrophaeus spores,impair the performance
CC(=O)OO [peracetic acid],increase in number of PCR cycles to detect PIXV relative to controls,PIXV,about 4 cycles
same,effect on ELISA of spores,B. atrophaeus endospores,slightly; also recorded: only affected by PAA at a concentration ten times higher
same,limit of detection of ELISA tests to determine spores,B. atrophaeus endospores,marginally reduced
same,effect on PCR of spores,B. atrophaeus spores,slightly
same,effect on PCR of spores,B. atrophaeus spores; listed as PAA,only marginally affected
"OCl [sodium hypochlorite, reference compound]",effect on PCR of spores,B. atrophaeus spores,completely inhibits
cupric ascorbate,effect on ELISA of spores,B. atrophaeus endospores,slightly; also recorded: no impact
same,limit of detection of ELISA tests to determine spores,B. atrophaeus endospores,marginally reduced
same,effect on PCR of spores,B. atrophaeus spores,slightly; also recorded: neglectable
same,PCR of spores at five-fold higher concentration,B. atrophaeus spores; cupric ascorbate five-fold higher than 0.5% in Cu++,does not impair

# Entries after “also recorded” stand apart in the source; their conditions may differ.
